# Measured values published in PubChem BioAssay AID2685 (National Center for Advancing Translational Sciences (NCATS), 2010).
# The other results are listed elsewhere or left out. Shown are side measurements of this screen, not its main read-out; they come without a call. The list favours compounds with an active or inconclusive main result. The note in brackets gives the kind of curve behind each potency; many fits are weak.
# Test: qHTS Assay for Lipid Storage Modulators in Drosophila S3 Cells;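 on cell number change: cells counted by Cell Tracker Red CMTPX staining in the red channel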
# Conditions: BODIPY lipid droplet fluorescence, 18-24 h; for cell number change: measured here: cell count max response, cells fed with added oleic acid
# In short: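 Laser-scanning cytometry quantifies lipid droplet accumulation (500–530 nm total intensity; droplet/cell object ratio) in oleic acid-fed (400 uM added) Drosophila S3 cells treated with a concentration series. 20 uM Triacsin C defined 100% inhibition.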
# [1] = measured here: lipid fluorescence (Fed channel) AC50, cells fed with added oleic acid
# [2] = measured here: cell number channel AC50, cells fed with added oleic acid
Structure (SMILES),cell number change [%],AC50 [1],AC50 [2]
CC(C)OC(=O)CN1C(=O)C(C)(C)Oc2ccc(C(=O)NC(C)(C)C)cc21,1.29,"18.4 µM [rising, single point]",–
COc1ccccc1C(=O)Nc1nnc(-c2ccc3c(c2)CCCC3)o1,–,"2.31 µM [rising, partial curve]",–
COc1ccc2cc(C(C)C(=O)O)ccc2c1 (centres undefined),28.8,"25.9 µM [rising, single point]",–
O=S(=O)(NCC(Nc1ccc(Cl)cc1)c1ccccc1)c1ccccc1 (centres undefined),-16.2,–,–
CN(C)CCCOC(=O)c1ccc(Br)cc1,–,"0.58 µM [falling, single point]",–
CCOC(=O)N1CCC(NC(=O)CCC(=O)N2CC(C)Oc3ccc(Cl)cc32)CC1 (centres undefined),–,"6.51 µM [rising, partial curve, poor fit]",–
CC(C)c1ccc(NC(=O)CSC(C)c2nc3ccccc3c(=O)[nH]2)cc1 (centres undefined),14.5,–,–
CCCCC(NC(=O)Cc1c(C)c2cc3c4c(oc3c(C)c2oc1=O)CCCC4)C(=O)O (centres undefined),24.1,–,–
O=c1ccc(-c2ccccc2)nn1Cc1ccc(F)cc1,8.97,"16.4 µM [falling, single point]",–
CN(C)c1ncnc2c1NC1=C(S2)C(=NCCCC(=O)O)CC(C)(C)C1,-14.3,"0.164 µM [falling, full curve, poor fit]",–
O=C(O)CCn1c(SCc2cccc3ccccc23)nc2ccccc21,79.6,"6.51 µM [falling, single point]",–
COC(CC(=O)NNC(=S)Nc1ccc(Cl)cc1)OC,–,"0.103 µM [falling, full curve, poor fit]","0.116 µM [falling, full curve, poor fit]"
Cc1ccc(C(=O)OCc2cn3ccccc3n2)cc1,–,"7.31 µM [falling, partial curve, poor fit]",–
CCOC(=O)N1CCN(C(=O)/C=C/c2cccc([N+](=O)[O-])c2)CC1,63.3,"8.2 µM [rising, partial curve]",–
O=C(OCC(=O)N1CCCC1)c1ccc(S(=O)(=O)Nc2ccccc2)cc1,79.4,–,"0.731 µM [rising, full curve]"
CC(=O)Nc1ccc(S(=O)(=O)Nc2nc3ccccc3nc2Nc2cccc(O)c2)cc1,–,"3.66 µM [falling, full curve]","6.51 µM [falling, single point]"
Cc1ccc(S(=O)(=O)N(C)C)cc1NC(=S)NC(C)CCCC(C)C (centres undefined),-12.9,"0.517 µM [falling, full curve, poor fit]",–
CCc1ccc(-c2cc(C(=O)N3N=C(C(F)F)CC3(O)C(F)F)c3ccccc3n2)cc1 (centres undefined),-82.4,"29.1 µM [falling, single point]","18.4 µM [falling, partial curve]"
CCCCCCSc1nsc(NC(C)=O)n1,-10.9,–,–
CCOC(=O)C1=C(N)OC2=C(C(=O)CCC2)C1c1cccnc1 (centres undefined),-20.7,–,–
CN(CC(=O)Nc1ccccc1Cl)C(=O)COC(=O)/C=C/c1cccc(C(F)(F)F)c1,-24.3,–,"0.00517 µM [falling, full curve, poor fit]"

Structure (SMILES),cell number change [%],AC50 [1],AC50 [2]
Cc1ccc(NC(=O)c2ccccc2-c2cc(C)no2)cc1,27.3,"11.2 µM [rising, single point]",–
Cc1ccc(/C=C/C(=O)N2CCc3ccccc3C2)cc1,35.4,"14.6 µM [rising, partial curve]","14.6 µM [rising, single point]"
CCOc1ccc(-n2c(-c3ccccc3)c[nH]c2=S)cc1,88.9,–,–
CCN(CC)CCNC(=O)c1ccc(Cl)c(S(=O)(=O)N2CCCCCC2)c1,-0.7,"6.51 µM [rising, full curve]",–
CC(=O)Cc1nsc(NC(=O)c2ccc(COc3ccccc3C)o2)n1,19.1,"0.13 µM [rising, full curve, poor fit]",–
CC(=O)Nc1ccc(Nc2cc(C)c3ccccc3n2)cc1,-1.69,–,–
O=C1c2ccccc2S(=O)(=O)N1Cc1cccc(S(=O)(=O)N2CCOCC2)c1,-14.4,"16.4 µM [rising, single point]",–
COCCn1c(-c2ccc(F)cc2)nc2oc3cc(OC)ccc3c(=O)c2c1=O,–,–,"3.26 µM [rising, single point]"
Cc1scc(C(=O)Nc2ccon2)c1-c1ccccc1,2.23,–,–
Cc1csc(NC(=O)C2CCCO2)n1 (centres undefined),7.47,–,"0.651 µM [falling, full curve]"
C=CCOc1cccc(C2/C(=C(\O)c3ccc4c(c3)OCCO4)C(=O)C(=O)N2Cc2cccnc2)c1 (centres undefined),-2.29,"29.1 µM [rising, single point]",–
CC1=C(C(=O)Nc2ccccc2)C(c2ccc(C)o2)N2C(=O)CSC2=N1 (centres undefined),-34,–,"32.6 µM [falling, single point]"
CC(C(=O)NCc1cccs1)n1cccc1 (centres undefined),-21.5,"1.84 µM [falling, full curve]","3.26 µM [falling, full curve, poor fit]"
Cc1cc(C)n(C(=O)Cn2nc([N+](=O)[O-])c(Br)c2C)n1,-15.7,"32.6 µM [falling, single point]",–
CC1CCCCN1S(=O)(=O)c1coc(C(N)=O)c1 (centres undefined),38.9,–,"29.1 µM [rising, single point]"
Cn1cc(SCC(=O)Nc2ccc3c(c2)OCCO3)c2ccccc21,29.5,–,"2.31 µM [rising, full curve, poor fit]"
O=C(NCCCN1CCOCC1)c1csc2c1CCCC2,13.4,"29.1 µM [rising, single point]",–
O=C(COC(=O)c1c(Cl)cccc1Cl)Nc1cccc(S(=O)(=O)NC2=NCCCCC2)c1,-40.2,"0.00461 µM [falling, full curve, poor fit]",–
N#C/C(=C\c1ccc(Sc2ccccc2)o1)c1nc2ccccc2[nH]1,30.3,"2.06 µM [rising, partial curve]","1.84 µM [rising, full curve]"
COc1ccccc1C(c1nnnn1Cc1ccco1)N1CCN(c2cccc(C)c2C)CC1 (centres undefined),-16.5,"32.6 µM [falling, single point]",–
COc1cccc(C(=O)C[n+]2cccc3cc(OC)ccc32)c1,-13,"0.411 µM [falling, full curve, poor fit]",–

Structure (SMILES),cell number change [%],AC50 [1],AC50 [2]
CCC(C)c1ccc(NC(=O)c2c([N+](=O)[O-])cnn2CC)cc1 (centres undefined),-23.5,–,–
O=C1c2ccccc2CN2C(=O)c3ccccc3CN12,1.39,"2.06 µM [rising, partial curve]",–
Cc1c(Br)c([N+](=O)[O-])nn1CC(=O)Nc1cccc2nonc12,2.04,–,–
COc1ccc(C)cc1NC(=O)COC(=O)c1ccccc1SCC(=O)N1CCCC1,-50,"0.58 µM [falling, single point]","3.66 µM [falling, full curve]"
Cc1ccc(CS(=O)(=O)CCC(=O)NCCCN2CCCC2=O)cc1,39.7,–,"29.1 µM [rising, single point]"
COC(=O)C1=C(C)N(Cc2ccccc2)C(=NCc2cc(OC)c(OC)c(OC)c2)N[C@H]1c1cccc(F)c1,-9.58,–,–
Cc1sc(NC(=O)CN2CCOCC2)nc1-c1ccc2c(c1)CCN2S(=O)(=O)c1ccccc1,-59.5,"20.6 µM [falling, single point]","9.2 µM [falling, partial curve, poor fit]"
CCCCNc1c([N+](=O)[O-])c(=O)n(C)c2ccccc12,15,"10.3 µM [rising, partial curve, poor fit]",–
O=C(Nc1cccc(Br)c1)c1ccc(Cl)c(S(=O)(=O)N2CCOCC2)c1,-26.2,"7.31 µM [falling, partial curve]",–
COc1cc(/C=C/c2[nH]c(=O)[nH]c(=O)c2[N+](=O)[O-])cc([N+](=O)[O-])c1O,54.1,–,"0.13 µM [rising, full curve, poor fit]"
COc1ccc2nc(C)cc(SCC(=O)N/N=C/c3ccccc3)c2c1,28.6,"3.26 µM [rising, partial curve]",–
CC(C)CNC(=O)CSc1ccc(S(=O)(=O)N(C)C2CCCCC2)cn1,-50,"16.4 µM [rising, single point]","29.1 µM [falling, single point]"
O=C(NCc1ccco1)C1CCC(N2C(=O)c3ccccc3C2=O)CC1 (centres undefined),28.4,–,–
COc1cccc(CN(C)S(=O)(=O)c2ccc3c(c2)OCCO3)c1,-25,"29.1 µM [rising, single point]","0.116 µM [falling, full curve, poor fit]"
O=C(Cn1nc(C(=O)O)c2ccccc2c1=O)NCc1ccco1,13.1,"0.103 µM [falling, full curve, poor fit]","0.82 µM [falling, single point]"
S=C(NCc1ccccc1)Nc1ccncc1,-52,"0.116 µM [falling, full curve, poor fit]","16.4 µM [falling, partial curve, poor fit]"
Cc1cccc(C(=O)NNC(=O)CSc2nnc(C(C)C)n2C)c1,-15.4,–,"0.146 µM [falling, full curve, poor fit]"
Cc1ccc(-c2nnc3sc(CCc4ccccc4)nn23)cc1,–,"1.64 µM [rising, partial curve]",–
COc1ccc(-c2cc3cc(OC)c(OC)cc3c(C)n2)cc1C,9.8,"1.46 µM [falling, full curve, poor fit]",–

# Part of the list above, tab-delimited:
Structure (SMILES)	cell number change [%]	AC50 [1]	AC50 [2]
O=C(Cn1nc(C(=O)O)c2ccccc2c1=O)NCc1ccco1	13.1	0.103 µM [falling, full curve, poor fit]	0.82 µM [falling, single point]
S=C(NCc1ccccc1)Nc1ccncc1	-52	0.116 µM [falling, full curve, poor fit]	16.4 µM [falling, partial curve, poor fit]
Cc1cccc(C(=O)NNC(=O)CSc2nnc(C(C)C)n2C)c1	-15.4	–	0.146 µM [falling, full curve, poor fit]
